In US9758501B2, “Fluorophore 3-hydroxyflavone” (TUBITAK (TURKIYE BILIMSEL VE TEKNOLOJIK ARASTIRMA KURUMU), priority 2013, dated 2017):

Assay: Fluorescence emission of 3-HFNMe3 in water, excited at 381 nm
Assay type: physicochemical

With “N-(3-hydroxy-4′-flavonyl)-N,N,N-trimethylammonium sulphate [3-HFNMe3]” the emission band maximum (normal (tap) water, only one emission band) was 456 nm, the “N* emission band” value (ultra pure water, two bands) was 450 nm and the “T* emission band” value (ultra pure water, two bands) was 520 nm.
